Assay results from US6774139B1, “Dual function microbicides” (Parker Hughes Institute, priority 2000, dated 2004).
Several values for one entry are separate records, joined by “and”; a condition that tells them apart may be missing. Equal values may be shown once.

Tests used:
Type in all cases: cell-based
[1] = tested on: normal human vaginal epithelial cells; test: MTT cell viability assay, vaginal epithelial cells
Method: (§1) Briefly, exponential growing vaginal, ectocervical, and endocervical epithelial cells were seeded into 96-well plates at a density of 2×10^4 cells/well and incubated for 24 h at 37° C. prior to drug exposure. On the day of treatment, culture medium was aspirated from the wells and replaced with fresh medium containing serial two-fold drug concentrations ranging from 7.8 μM to 1000 μM. N-9 (IGEPAL CO-630; Rhone Poulenc, Cranbury, N.J.) was diluted in PBS. Triplicate wells were used for each treatment. Culture plates were then incubated for 3 hours before adding 10 μl of MTT solution (5 mg/ml in PBS) to each well. Wells containing only medium and MTT were used as control for each plate. The tetrazolium/formazan reaction was allowed to proceed for 4 hours at 37° C., and then 100 μl of the solubilization buffer (10% sodium dodecyl sulfate in 0.1% HCl) was added to all wells and mixed thoroughly to dissolve the dark blue formazan crystals. After an overnight incubation at 37° C., the OD at 540 nm were measured using a 96-well multiscanner autoreader with the solubilization buffer serving as blank. To translate the OD540 values into the number of live cells in each well, the OD540 values were compared to those of standard OD540-versus-cell number curves generated for each cell line. The percent survival was calculated using the formula: % survival=Live cell number [test]/Live cell number [control]×100. The results were expressed as mean IC50 values for three independent experiments. The IC50 [MTT] was defined as the concentration required for 50% reduction in cell survival.
(§2) Cell viability was measured by the MTT assay.

[2] = tested on: normal human endocervical epithelial cells; test: MTT cell viability assay, endocervical epithelial cells
Method: as §1, §2

[3] = tested on: normal human ectocervical epithelial cells; test: MTT cell viability assay, ectocervical epithelial cells
Method: as §1, §2

Structure (SMILES) | SI (ratio of IC50[MTT] to EC50[SIA]) vaginal epithelial cells [1] | SI (ratio of IC50[MTT] to EC50[SIA]) endocervical epithelial cells [2] | SI (ratio of IC50[MTT] to EC50[SIA]) ectocervical epithelial cells [3]
CCCCCCCCCc1ccc(OCCOCCOCCOCCOCCOCCOCCOCCOCCO)cc1 [Compound N-9, nonoxynol-9, reference compound] | 0.7 | 0.3 and 0.4 | 0.7
S=C(NCCc1ccccn1)Nc1ccccn1 [HI 207] | >3.5 | >3.5 | >3.5
Fc1ccccc1CCNC(=S)Nc1ccc(Br)cn1 [HI 240] | >6.8 | >6.8 | >6.8
S=C(NCCc1ccccc1Cl)Nc1ccc(Br)cn1 [HI 253] | >14.2 | >14.2 | >14.2
S=C(NCCC1=CCCCC1)Nc1ccc(Br)cn1 [HI 346] | >23.8 | 13.8 | 18.2
S=C(NCCC1=CCCCC1)Nc1ccc(Cl)cn1 [HI 445] | 10.1 | 3.2 | 12.1
